# The other results are listed elsewhere or left out.
# B1: Thrombomodulin Extracellular (Mus musculus), P15306 (protein)
# chain: MLGIFFLGVLAPASLGLSALAKLQPTGSQCVEHECFALFQGPATFLDASQACQRLQGHLMTVRSSVAADVISLLLSQSSMDLGPWIGLQLPQGCDDPVHLGPLRGFQWVTGDNHTSYSRWARPNDQTAPLCGPLCVTVSTATEAAPGEPAWEEKPCETETQGFLCEFYFTASCRPLTVNTRDPEAAHISSTYNTPFGVSGADFQTLPVGSSAAVEPLGLELVCRAPPGTSEGHWAWEATGAWNCSVENGGCEYLCNRSTNEPRCLCPRDMDLQADGRSCARPVVQSCNELCEHFCVSNAEVPGSYSCMCETGYQLAADGHRCEDVDDCKQGPNPCPQLCVNTKGGFECFCYDGYELVDGECVELLDPCFGSNCEFQCQPVSPTDYRCICAPGFAPKPDEPHKCEMFCNETSCPADCDPNSPTVCECPEGFILDEGSVCTDIDECSQGECFTSECRNFPGSYECICGPDTALAGQISKDCDPIPVREDTKEEEGSGEPPVSPTPGSPTGPPSARPVHSGVLIGISIASLSLVVALLALLCHLRKKQGAARAELEYKCASSAKEVVLQHVRTDRTLQKF
# Legend:
# Assay in all cases: glycan array binding signal (z-score within array); higher = stronger binding
# Conditions in all cases: glycan notation: IUPAC condensed, linker removed
# [1] = molecular target: Fuc(a1-2)[Gal(a1-3)]Gal(b1-4)GlcNAc(b1-2)Man(a1-3)[Fuc(a1-2)[Gal(a1-3)]Gal(b1-4)GlcNAc(b1-2)Man(a1-6)]Man(b1-4)GlcNAc(b1-4)[Fuc(a1-6)]GlcNAc
# Method in brief: (§1)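 The Consortium for Functional Glycomics database supplied 3228 glycan arrays, of which those lacking an available protein sequence were dropped. The binding signal, a within-array Z-score, was averaged across arrays of the same protein sequence and across linkers. Negative scores can be read as non-binding.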
# [2] = molecular target: Fuc(a1-2)[Gal(a1-3)]Gal(b1-4)GlcNAc(b1-3)GalNAc
# Method in brief: as §1
# [3] = molecular target: Fuc(a1-2)[Gal(a1-3)]Gal(b1-4)GlcNAc(b1-3)[Fuc(a1-2)[Gal(a1-3)]Gal(b1-4)GlcNAc(b1-6)]GalNAc
# Method in brief: as §1
# [4] = molecular target: Fuc(a1-2)[Gal(a1-3)]Gal(b1-4)GlcNAc(b1-6)GalNAc
# Method in brief: as §1
# [5] = molecular target: Fuc(a1-2)[Gal(a1-3)]Gal(b1-4)[Fuc(a1-3)]Glc
# Method in brief: as §1
# [6] = molecular target: Fuc(a1-2)[Gal(a1-3)]Gal(b1-4)[Fuc(a1-3)]GlcNAc
# Method in brief: as §1
# [7] = molecular target: Fuc(a1-2)[Gal(a1-3)]Gal(b1-4)[Fuc(a1-3)]GlcNAc(b1-3)GalNAc
# Method in brief: as §1
# [8] = molecular target: Fuc(a1-2)[Gal(a1-4)]Gal(b1-4)GlcNAc
# Method in brief: as §1
# [9] = molecular target: Fuc(a1-2)[GalNAc(a1-3)]Gal
# Method in brief: as §1
# [10] = molecular target: Fuc(a1-2)[GalNAc(a1-3)]Gal(b1-3)GalNAc(a1-3)[Fuc(a1-2)]Gal(b1-4)GlcNAc
# Method in brief: as §1
# [11] = molecular target: Fuc(a1-2)[GalNAc(a1-3)]Gal(b1-3)GalNAc(b1-3)Gal(a1-4)Gal(b1-4)Glc
# Method in brief: as §1
# [12] = molecular target: Fuc(a1-2)[GalNAc(a1-3)]Gal(b1-3)GlcNAc
# Method in brief: as §1
# [13] = molecular target: Fuc(a1-2)[GalNAc(a1-3)]Gal(b1-3)GlcNAc(b1-2)Man(a1-3)[Fuc(a1-2)[GalNAc(a1-3)]Gal(b1-3)GlcNAc(b1-2)Man(a1-6)]Man(b1-4)GlcNAc(b1-4)GlcNAc
# Method in brief: as §1
# [14] = molecular target: Fuc(a1-2)[GalNAc(a1-3)]Gal(b1-3)GlcNAc(b1-2)Man(a1-3)[Fuc(a1-2)[GalNAc(a1-3)]Gal(b1-3)GlcNAc(b1-2)Man(a1-6)]Man(b1-4)GlcNAc(b1-4)[Fuc(a1-6)]GlcNAc
# Method in brief: as §1
# [15] = molecular target: Fuc(a1-2)[GalNAc(a1-3)]Gal(b1-3)GlcNAc(b1-3)GalNAc
# Method in brief: as §1
# [16] = molecular target: Fuc(a1-2)[GalNAc(a1-3)]Gal(b1-3)GlcNAc(b1-6)GalNAc
# Method in brief: as §1
# [17] = molecular target: Fuc(a1-2)[GalNAc(a1-3)]Gal(b1-4)Glc
# Method in brief: as §1
# [18] = molecular target: Fuc(a1-2)[GalNAc(a1-3)]Gal(b1-4)GlcNAc
# Method in brief: as §1
# [19] = molecular target: Fuc(a1-2)[GalNAc(a1-3)]Gal(b1-4)GlcNAc(b1-2)Man
# Method in brief: as §1
# [20] = molecular target: Fuc(a1-2)[GalNAc(a1-3)]Gal(b1-4)GlcNAc(b1-2)Man(a1-3)[Fuc(a1-2)[GalNAc(a1-3)]Gal(b1-4)GlcNAc(b1-2)Man(a1-6)]Man(b1-4)GlcNAc(b1-4)GlcNAc
# Method in brief: as §1
# [21] = molecular target: Fuc(a1-2)[GalNAc(a1-3)]Gal(b1-4)GlcNAc(b1-2)Man(a1-3)[Fuc(a1-2)[GalNAc(a1-3)]Gal(b1-4)GlcNAc(b1-2)Man(a1-6)]Man(b1-4)GlcNAc(b1-4)[Fuc(a1-6)]GlcNAc
# Method in brief: as §1
# [22] = molecular target: Fuc(a1-2)[GalNAc(a1-3)]Gal(b1-4)GlcNAc(b1-3)Gal(b1-4)GlcNAc
# Method in brief: as §1
# [23] = molecular target: Fuc(a1-2)[GalNAc(a1-3)]Gal(b1-4)GlcNAc(b1-3)Gal(b1-4)GlcNAc(b1-3)Gal(b1-4)GlcNAc
# Method in brief: as §1
# [24] = molecular target: Fuc(a1-2)[GalNAc(a1-3)]Gal(b1-4)GlcNAc(b1-3)GalNAc
# Method in brief: as §1
# [25] = molecular target: Fuc(a1-2)[GalNAc(a1-3)]Gal(b1-4)GlcNAc(b1-3)[Fuc(a1-2)[GalNAc(a1-3)]Gal(b1-4)GlcNAc(b1-6)]GalNAc
# Method in brief: as §1
# [26] = molecular target: Fuc(a1-2)[GalNAc(a1-3)]Gal(b1-4)GlcNAc(b1-6)GalNAc
# Method in brief: as §1
# [27] = molecular target: Fuc(a1-2)[GalNAc(a1-3)]Gal(b1-4)[Fuc(a1-3)]GlcNAc
# Method in brief: as §1
# [28] = molecular target: Fuc(a1-2)[GalNAc(a1-3)]Gal(b1-4)[Fuc(a1-3)]GlcNAc(b1-3)GalNAc
# Method in brief: as §1
# [29] = molecular target: Fuc(a1-2)[GalNAc(a1-4)]Gal(b1-4)GlcNAc
# Method in brief: as §1
# [30] = molecular target: Fuc(a1-2)[GalNAc(b1-3)]Gal
# Method in brief: as §1
binder,measurement,setting,value
B1,glycan array binding signal (z-score),[1],1.13
same,glycan array binding signal (z-score),[2],-0.46
same,glycan array binding signal (z-score),[3],0.857
same,glycan array binding signal (z-score),[4],-0.157
same,glycan array binding signal (z-score),[5],-1.18
same,glycan array binding signal (z-score),[6],0.13
same,glycan array binding signal (z-score),[7],-0.478
same,glycan array binding signal (z-score),[8],0.977
same,glycan array binding signal (z-score),[9],-0.162
same,glycan array binding signal (z-score),[10],0.147
same,glycan array binding signal (z-score),[11],0.298
same,glycan array binding signal (z-score),[12],1.28
same,glycan array binding signal (z-score),[13],-0.08
same,glycan array binding signal (z-score),[14],1.19
same,glycan array binding signal (z-score),[15],-0.236
same,glycan array binding signal (z-score),[16],-0.73
same,glycan array binding signal (z-score),[17],-1.64
same,glycan array binding signal (z-score),[18],-0.749
same,glycan array binding signal (z-score),[19],1.79
same,glycan array binding signal (z-score),[20],1.36
same,glycan array binding signal (z-score),[21],-1.18
same,glycan array binding signal (z-score),[22],-0.54
same,glycan array binding signal (z-score),[23],0.782
same,glycan array binding signal (z-score),[24],-0.435
same,glycan array binding signal (z-score),[25],-0.665
same,glycan array binding signal (z-score),[26],-0.211
same,glycan array binding signal (z-score),[27],-2
same,glycan array binding signal (z-score),[28],0.285
same,glycan array binding signal (z-score),[29],-0.241
same,glycan array binding signal (z-score),[30],0.67

# Exported with bars between the fields: part of the list above.
binder | measurement | setting | value
B1 | glycan array binding signal (z-score) | [27] | -2
same | glycan array binding signal (z-score) | [30] | 0.67

# From the supplement of paper PMC8728848
